These results are taken from patent publication US10801050B2, “Microorganism modified for the assimilation of levulinic acid” (priority 2015, dated 2020).

The test system of the data set is Ralstonia eutropha DSM428. Put plainly: Quantitative proteomics of Ralstonia eutropha DSM428 cultivated with or without levulinic acid (nanoLC-MS/MS). The format is cell-based. The following applies: for % of total proteins Without LA / % of total proteins With LA: Ralstonia eutropha DSM428, shake flasks, LB rich medium, nanoLC-MS/MS protein abundance; for % of total proteins Without LA: 0 g/L levulinic acid; for % of total proteins With LA: 5 g/L levulinic acid; for expression level in response to levulinic acid (protein abundance, % of total proteins): Ralstonia eutropha DSM428, LB rich medium, 5 g/L vs 0 g/L levulinic acid, up-regulated = quantity at least multiplied by 2.

With CLPP_CUPNH, the “% of total proteins Without LA” value is 0.20 % of total proteins and the “% of total proteins With LA” value was 0.20 % of total proteins.

ENO_CUPNH: the “% of total proteins Without LA” value is 0.80 % of total proteins and the “% of total proteins With LA” value is on record as 0.78 % of total proteins.

Consider MDH_CUPNH, for which the “% of total proteins Without LA” value is on record as 1.50 % of total proteins and the “% of total proteins With LA” value is reported as 1.51 % of total proteins.

As for “Q0KAG4_CUPNH: a 2-methylcitrate synthase (PrpC) of the 2-methylcitric acid cycle”, the “expression level in response to levulinic acid (protein abundance, % of total proteins)” value is “up-regulated”; the “% of total proteins Without LA” value is 0.49 % of total proteins; the “% of total proteins With LA” value is on record as 1.82 % of total proteins.

With “Q0KBG1_CUPNH: Ralstonia eutropha acetyl-CoA acetyltransferase (EC 2.3.1.9), candidate for reaction B”, the “expression level in response to levulinic acid (protein abundance, % of total proteins)” value is given as “up-regulated”; the “% of total proteins Without LA” value was <0.06 % of total proteins; the “% of total proteins With LA” value is on record as 0.30 % of total proteins.

For the substance “Q0KBZ9_CUPNH/Q0KC00_CUPNH: the 2 subunits of succinyl-CoA:3-ketoacid-coenzyme A transferase (EC 2.8.3.5), candidate for reaction A2”, the “abundance compared with respective counterparts identified for reactions A and B” value (proteomics of Ralstonia eutropha DSM428) is “more abundant”.

As to “Q0KBZ9_CUPNH: subunit of a Ralstonia eutropha succinyl-CoA:3-ketoacid-coenzyme A transferase (EC 2.8.3.5), gene H16_A1332”, the “expression level in response to levulinic acid (protein abundance, % of total proteins)” value is recorded as “up-regulated”; the “% of total proteins Without LA” value is 0.26 % of total proteins; the “% of total proteins With LA” value was 0.76 % of total proteins.

As to RPOB_CUPNH, the “% of total proteins Without LA” value was 2.55 % of total proteins and the “% of total proteins With LA” value is listed as 2.85 % of total proteins.
